This is one part of the list. These are further read-outs of the screen, such as a control signal, another cell line or another target. No call is given for them. Compounds called inactive in the main read-out are mostly missing here. Words in brackets tell the shape of the fitted curve; partial curves, single points and poor fits give uncertain potencies.
Assay: qHTS Assay to Find Inhibitors of Chronic Active B-Cell Receptor Signaling
Details: ABC-DLBCL IkBa-CBG/CBR reporter, luminescence ratio (green luciferase fused to IkBa over red control in TMD8 lymphoma cells), 4 h
Outline: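 Cell line TMD8 (human ABC DLBCL), stably expressing tet-inducible CBG68-IkBa fusion and CBR; IMDM/0.5% FBS; cpd up to 46 uM; dox induction, 4 h, 37C/5% CO2; dual luminescence; green/red ratio; MG132 control.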

[1] = measured here: CBR red luminescence, cell number
[2] = measured here: IkBa-CBG green luminescence

Row | SMILES | AC50 [1] | AC50 [2]
1 | CN(C)CCCn1c(=O)n(Cc2ccco2)c(=O)c2c3c(sc21)CCCCC3 | 6.31 µM [falling, partial curve, poor fit] | 
2 | COc1ccc(-c2cn(-c3ccc(OC)cc3)c3[n+]2-c2ccccc2CC3)cc1 | 29.1 µM [falling, single point] | 
3 | CCOc1cccc2sc(=NC(=O)c3ccco3)n(CC(=O)OC)c12 | 4.47 µM [rising, full curve, poor fit] | 
4 | CC(=O)c1sc(NC(=O)c2ccc3c(c2)OCO3)nc1C | 10 µM [falling, partial curve, poor fit] | 
5 | Cc1ccc(N(Cc2cc3ccccc3[nH]c2=O)S(C)(=O)=O)cc1 | 14.1 µM [falling, single point] | 
6 | COc1cccc(/C=N/NC(=O)c2ccc(COc3ccc(Cl)cc3Cl)o2)c1 | 4.47 µM [falling, full curve, poor fit] | 
7 | CC(CCc1ccccc1)NC(=O)/C=C/c1ccccc1 (centres undefined) | 0.0891 µM [rising, full curve, poor fit] | 
8 | FC(F)(F)c1cnc2c(c1)Nc1ccccc1S2 | 0.398 µM [rising, full curve] | 
9 | C/C(CC(=O)Nc1ccc([N+](=O)[O-])cc1)=N\NC(=O)c1ccccc1[N+](=O)[O-] | 7.94 µM [falling, partial curve, poor fit] | 
10 | Cc1ccc(NS(=O)(=O)c2cc([N+](=O)[O-])ccc2NNC(=S)Nc2cccc(Cl)c2)c(C)c1 | 16.4 µM [falling, single point] | 20.6 µM [rising, single point]
11 | COc1ccc(C(=O)Nc2nc3ccccc3[nH]2)cc1 | 1.12 µM [falling, full curve] | 
12 | CCOC(=O)c1ccc(NC(=O)c2c(NCc3sccc3C)sc3c2CCCCC3)cc1 | 35.5 µM [falling, partial curve, poor fit] | 
13 | CC(C)(C)c1ccc(C(=O)NC(Cc2c[nH]c3ccccc23)C(=O)OCC(=O)c2ccccc2)cc1 (centres undefined) | 8.91 µM [rising, partial curve] | 
14 | CCOC(=O)C1=C(C)NC(=O)NC1c1c(OCC(=O)N2CCCCC2)ccc2ccccc12 (centres undefined) | 8.91 µM [rising, partial curve, poor fit] | 
15 | COc1ccc(S(=O)(=O)N2CCOCC2)cc1NC(=O)c1ccc(-n2nc(C)cc2C)cc1 | 0.316 µM [rising, full curve, poor fit] | 
16 | Cc1n[nH]c(C)c1N1C(=O)c2cccc3c(Br)ccc(c23)C1=O | 2.91 µM [falling, partial curve] | 
17 | COc1ccccc1/C=C/C=N/N1CCN(c2ccccn2)CC1 | 10 µM [falling, partial curve, poor fit] | 
18 | O=C1CC(c2ccco2)CC(O)=C1C=NCCN1CCNCC1 (centres undefined) | 0.731 µM [falling, partial curve, poor fit] | 
19 | Cc1ccc2c(c1)NC(=O)C(CC(=O)NCCCN1CCCCC1C)O2 (centres undefined) | 6.51 µM [rising, single point] | 
20 | S=c1nc2ccccc2c2nc(-c3cccnc3)[nH]n12 | 1.26 µM [rising, full curve, poor fit] | 
21 | CC(=O)Nc1cccc(NC(=O)/C=C/c2ccc(S(=O)(=O)N3CCOCC3)cc2)c1 | 9.2 µM [falling, partial curve] | 

Row | SMILES | AC50 [1] | AC50 [2]
22 | COC(=O)C1=CN(c2ccc(OC)cc2)C=C(C(=O)OC)C1c1cc(OC)c(OC)cc1OC | 35.5 µM [rising, single point] | 
23 | COc1ccc(NC(=O)c2cc(C3CC3)nc3c2cnn3C(C)C)cc1OC | 0.206 µM [rising, full curve, poor fit] | 
24 | COc1ccc(-c2csc(NC(=O)c3ccccc3S(C)(=O)=O)n2)cc1 | 3.55 µM [rising, full curve, poor fit] | 
25 | CCCCn1c(-c2cccc(Br)c2)nc2cc3[nH]c(=O)c(C(C)C)nc3cc21 | 0.891 µM [falling, full curve] | 
26 | CCc1nnc2c(NCCc3ccc(OC)c(OC)c3)nc3ccccc3n12 | 17.8 µM [rising, partial curve, poor fit] | 
27 | O=C(Cn1cnc2c(nnn2Cc2ccccc2F)c1=O)N1CCN(c2ccccc2)CC1 | 29.1 µM [rising, single point] | 
28 | N#C/C(=C\c1ccc(Cl)cc1)c1nc(-c2ccco2)cs1 | 2.06 µM [rising, partial curve, poor fit] | 
29 | CCN(Cc1ccc(OC)c(F)c1)C(=O)CCl | 7.08 µM [falling, partial curve] | 
30 | COc1ccc2cc(CN(CC3CCCO3)C(=S)NCc3ccco3)c(=O)[nH]c2c1 (centres undefined) | 0.447 µM [rising, full curve, poor fit] | 
31 | CCOc1cccc(CNc2ccc(O)cc2)c1OCc1ccccc1Cl | 18.4 µM [rising, partial curve] | 
32 | Cc1cc(C)cc(NC(=O)c2cccc(NC3=NC4CS(=O)(=O)CC4S3)c2)c1 (centres undefined) | 2.82 µM [rising, single point] | 
33 | CNC(=S)Nc1cc(OC)ccc1OC | 6.51 µM [rising, partial curve, poor fit] | 
34 | CCCc1nc2ccccc2c(=O)n1/N=C/c1c(C)[nH]n(-c2ccc(C)cc2)c1=O | 17.8 µM [falling, single point] | 
35 | CC1CCC(C(C)C)C(OC(=O)C[n+]2cc(-c3ccc(Cl)cc3)n3c2CCC3)C1 (centres undefined) | 17.8 µM [falling, single point] | 
36 | O=C(CNC(=O)c1ccc(Br)o1)Nc1cccc(-c2cnc3ccccc3n2)c1 | 10 µM [rising, partial curve, poor fit] | 
37 | S=C(Nc1ccccc1)Nc1nc2ccccc2n1CCOc1ccc(Cl)cc1 | 8.2 µM [falling, single point] | 
38 | COc1cccc(NC(=O)Nc2ccc3nsnc3c2)c1 | 16.4 µM [falling, partial curve] | 
39 | COc1ccc(S(=O)(=O)Nc2ccc3c(c2)n(C)c(=O)n3C)cc1F |  | 11.2 µM [falling, partial curve]
40 | CCn1nnc(NC(=O)COc2cc(C)ccc2C(C)C)n1 | 16.4 µM [falling, single point] | 
41 | CSc1nc2sc3c(c2c(=O)n1C)CCC3 | 10 µM [rising, partial curve, poor fit] | 
42 | N=C1C(c2ccc(Br)cc2)=C(O)C2CCc3ccccc3N12 (centres undefined) | 7.08 µM [falling, partial curve, poor fit] | 

Taken from above:
Entry for COc1ccc(-c2csc(NC(=O)c3ccccc3S(C)(=O)=O)n2)cc1 under AC50 [1]: 3.55 µM [rising, full curve, poor fit]
Entry for COc1ccc(-c2cn(-c3ccc(OC)cc3)c3[n+]2-c2ccccc2CC3)cc1 under AC50 [1]: 29.1 µM [falling, single point]

Next compounds.

Row | SMILES | AC50 [1] | AC50 [2]
43 | COc1ccc(/C=N/NC(=O)c2ccccc2O)cc1CN1CCOCC1 | 11.2 µM [falling, partial curve, poor fit] | 
44 | CCCn1nc2cc(C(=O)NCc3ccccc3)ccc2c1OCC | 0.631 µM [falling, full curve, poor fit] | 
45 | O=C(O)c1cc(S(=O)(=O)Nc2ccccc2Cc2ccccc2)ccc1Cl | 3.16 µM [falling, partial curve, poor fit] | 
46 | C=CCn1c(NCc2c[nH]c3ccccc23)nc2ccccc21 | 2.06 µM [falling, partial curve] | 
47 | O=C(Nc1cccc(O)c1)c1cc(-c2cccs2)on1 | 3.98 µM [falling, partial curve] | 
48 | CCN(/N=C/C=C/c1ccccc1)c1cc(=O)n(C)c(=O)[nH]1 | 32.6 µM [rising, partial curve, poor fit] | 
49 | CC(=O)c1ccc(-n2nnnc2SCC(=O)Nc2sc(C)c(C)c2C#N)cc1 | 20.6 µM [rising, partial curve, poor fit] | 
50 | C/C(O)=C(\N=Nc1cc(C)ccc1O)C(N)=O | 1.12 µM [falling, full curve, poor fit] | 
51 | COc1ccc(-c2nnc(SCC(=O)Nc3ccc(C(C)=O)cc3)nc2-c2ccc(OC)cc2)cc1 | 31.6 µM [falling, single point] | 
52 | O=C(Nc1ccc(F)cc1F)NC1CCN(S(=O)(=O)c2ccc(F)cc2)CC1 | 25.1 µM [falling, single point] | 
53 | COc1ccccc1/C=C/C(=O)OCC(=O)N1CCCCC1 | 9.2 µM [falling, partial curve] | 
54 | COC(=O)C1CCN(C(=O)CN2C(=O)NC(CC(C)C)C2=O)CC1 (centres undefined) | 29.1 µM [falling, single point] | 
55 | CCCC(C(=O)NCC1CCCO1)N(Cc1ccco1)C(=O)CNS(=O)(=O)c1ccc(F)cc1 (centres undefined) | 29.1 µM [rising, single point] | 
56 | O=C(Nc1cccc(F)c1)c1ccc2c(c1)OCCO2 | 10 µM [falling, partial curve] | 
57 | CN(Cc1nc2ccccc2c(=O)[nH]1)C(=O)c1cc(C2CC2)nn1-c1ccccc1 | 10.3 µM [falling, partial curve] | 
58 | C=CCN(c1ccccc1Cl)S(=O)(=O)c1cc(C(=O)N2CCCC2)ccc1Cl | 12.6 µM [falling, partial curve, poor fit] | 
59 | COc1ccccc1OCC(=O)O/N=C(\N)c1ccccn1 | 1.58 µM [falling, full curve] | 
60 | COn1c(-c2ccc(Cl)cc2)nc2ccc(Cl)cc21 | 2 µM [rising, partial curve, poor fit] | 
61 | O=C(O)c1nc2ccccc2nc1C(=O)O | 3.55 µM [rising, partial curve, poor fit] | 
62 | COc1ccc(N(CC(=O)NCc2ccccc2OC)S(=O)(=O)c2ccc(C)cc2)cc1Cl | 14.1 µM [falling, single point] | 
63 | O=S(=O)(c1cccc(Cl)c1Cl)N1CCCCC1 | 0.58 µM [rising, full curve, poor fit] | 
